Results are given in words; binding and its absence hold for the method and conditions named.
Target: WWOX tandem WW1-WW2 domains (amino acid 16-91) (human) (UniProt Q9NZC7)
Test: SEC-MALS

B1: WWOX tandem WW1-WW2 domains (amino acid 16-91) (domain or fragment, UniProt Q9NZC7 16-91)
chain: DELPPGWEERTTKDGWVYYANHTEEKTQWEHPKTGKRKRVAGDLPYGWEQETDENGQVFFVDHINKRTTYLDPRLA
  binding: no binding

— article doi:10.1101/2021.12.01.470705 (bioRxiv, 2021)
